No constants are given. Whether binding was seen depends on the method and setting. In cells and extracts the contact can be indirect. A yes stands for co-enrichment or nearness to the bait. Other partners may have been found.
B1: SYCP1 (transverse filament protein), endogenous (protein, UniProt Q62209 1-993)
chain: MEKQKPFTLFVPPRLSSSQVSAVKPQTAGGDSNYFKTANKCTEGDFGVPFTMSSRENIDKDPAFQKLSILPMLEQVANSGSCHYQEGVNDSDFENSEPMSRLYSKLYKEAEKIKKWKVSIESELKQKENKLQENRKIIEAQRKAIQELQFENEKVSLKLEEEIQENKDLIKENNATIHWCNLLKETCARSAEKTNKYEYEREETRQVYVDLNSNIEKMILAFEELRVQAENARLEMHFKLKEDHEKIQHLEEEYQKEVNNKENQVSELLIQSAEKENKMKDLTFLLEESRDKANQLEEKTKLQDENLKELSEKKDHLTSELEDIKMSMQRSMSTQKALEEDLQIATKTISQLTEVKEAQMEELNKAKTTHSFVVTELKATTCTLEELLRTEQQRLEKNEDQLKLITVELQKKSNELEEMTKFKNNKEVELEELKNILAEDQKLLDEKKQVEKLAEELQEKEQELTFLLETREKEVHDLQEQVTVTKTSEQHYLKQVEEMKTELEKEKLKNTELTASCDMLLLENKKFVQEASDMALELKKHQEDIINCKKQEERLLKQIENLEEKEMHLRDELESVRKEFIQQGDEVKCKLDKSEENARSIECEVLKKEKQMKILESKCNNLKKQVENKSKNIEELHQENKTLKKKSSAEIKQLNAYEIKVSKLELELESTKQRFEEMTNNYQKEIENKKISEGKLLGEVEKAKATVDEAVKLQKEIDLRCQHKIAEMVALMEKHKHQYDKIVEERDSELGLYKNREQEQSSAKIALETELSNIRNELVSLKKQLEIEKEEKEKLKMAKENTAILKDKKDKKIQASLLESPEATSWKFDSKTTPSQNISRLSSSMDSGKSKDNRDNLRASAKSILPTTVTKEYTVKTPTKKSIYQRENKYIPTGGSNKKRKTAFEFDVNSDSSETADLLSLVSEEDVSNRLYDNNPPDSHLLVKTPKQTPLSLSTPASFMKFGSLKKMREDRWTTIAKIDRKRRLKEAEKLFS
B2: TRIP13 (AAA-ATPase), endogenous (protein, UniProt Q3UA06 1-432)
chain: MDEAVGDLKQALPCVAESPAVHVEVLQRSGSTAKKEDIKSSVYRLLNRHNIVFGDYVWTEFDDPFLSRNVQSVSIVDTELKAKDPQPIDLSACTIALHIFQLNEEGPSSENLDEETENIIAASHWVLPAAEFHGLWDSLVYDVEVKSHLLDYVMTTVLFSDKNVDSNLITWNRVVLLHGPPGTGKTSLCKALAQKLTIRLSSRYRYGQLIEINSHSLFSKWFSESGKLVTKMFQKIQDLIDDKEALVFVLIDEVESLTAARNACRAGAEPSDAIRVVNAVLTQIDQIKRHSNVVILTTSNITEKIDVAFVDRADIKQYIGPPSAAAIFKIYLSCLEELMKCQIIYPRQQLLTLRELEMIGFIENNVSKLSLLLSEISRKSEGLSGRVLRKLPFLAHALYIQAPSVTIEGFLQALSLAVDKQFEEKKKLSAYV
B3: CCT2 (protein, UniProt P80314 1-535)
chain: MASLSLAPVNIFKAGADEERAETARLSSFIGAIAIGDLVKSTLGPKGMDKILLSSGRDAALMVTNDGATILKNIGVDNPAAKVLVDMSRVQDDEVGDGTTSVTVLAAELLREAESLIAKKIHPQTIISGWREATKAAREALLSSAVDHGSDEARFWQDLMNIAGTTLSSKLLTHHKDHFTKLAVEAVLRLKGSGNLEAIHVIKKLGGSLADSYLDEGFLLDKKIGVNQPKRIENAKILIANTGMDTDKIKIFGSRVRVDSTAKVAEIEHAEKEKMKEKVERILKHGINCFINRQLIYNYPEQLFGAAGVMAIEHADFAGVERLALVTGGEIASTFDHPELVKLGSCKLIEEVMIGEDKLIHFSGVALGEACTIVLRGATQQILDEAERSLHDALCVLAQTVKDPRTVYGGGCSEMLMAHAVTQLANRTPGKEAVAMESFAKALRMLPTIIADNAGYDSADLVAQLRAAHSEGHITAGLDMKEGTIGDMAVLGITESFQVKRQVLLSAAEAAEVILRVDNIIKAAPRKRVPDHHPC
B4: TDRD9 (tudor domain protein) (protein, UniProt Q14BI7 1-1383)
chain: MLRKLTVDQINDWFTIGKTVTNVELLGLPPAFPAEAPREEVQRSEEVPNEDPTAQAQVPVKATAPARPASTSGRSLSQRSSEMEYINKYRQLEEQELDIYGQDQPPSGPGLRSPLAKLSNVACIPETTYKYPDLPINRCKEEVISLIESNSVVIIHGATGSGKSTQLPQYVLDHYTQRSAFCNIVVTQPRKIGASSIARWISKERSWTLGGLVGYQVGLEKIATEDTRLIYMTTGVLLQKIVSAKSLMEFTHIFIDEVHERTEEMDFLLLVVRKLLRTNSRFVKVVLMSATINCKQFADYFAVPVQNKMNPAYVFEVEGKPHAIEEYYLNDLGHIYHSGLPYRLEEPVITKDVYEVAVSLIQMFDDLDMKESGNKTWSGAQFVSERSSVLVFLPGLGEINYMHELLTNMIHKRLQVYPLHSSVTLEEQNNVFLSPVPGYRKIILSTNIAESSVTVPDVKYVIDFCLTRTLVCDEDTNYQSLRLSWASKTSCDQRKGRAGRVSKGYCYRLIPRDFWDSAIPDHVVPEMLRCPLGSTILKVKLLDMGEPRALLATALSPPSLSDIERTILLLKEVGALAVSGQREDENPHDGELTFLGRVLAQLPVSQQLGKLVVLGHVFGCLDECLIIAAALSLKNFFTMPFRQHLDGYRNKVHFSGSSRSDCLALVEAFRAWQACRQRGELRRPKDELDWGRLNYIQIKRIREVAELYEELKNRISQFNMFVGPHHPVLDQEYPYKQRFILQVVLAGAFYPNYFTFGQPDEEMAVRELAGKDPKTTVVLKHIPPYGFLYYKQLQSLFRQCGQVKSIVFDGAKAFVEFSRNPTERFKTLPAVNLAVKMSQLKVSLELSVHAAEEIEGKVQGGSVSKLRNTRVNVDFQKQTVDPMQVSFNTLDRPRTVADLLLTIDVTEVVEVGHFWGYRIDERNAELLKQLTAEINRLELVPLPIHPHPDLVCLAPFTDYNKESYFRAQILYVSGNSAEVFFVDYGNRSHVDLDLLREIPCQFLELPFQALEFKICKMRPSAKSLICGEHWSGGAHGRFAALVGGCPLLVKVFSIVHSVLHVDVYRYSGAQDAVNVRDVLIREGYAELAEESYESKQSYEVLKGFFAKSVDTMPDGSVSSPLKDDEKHLLRILLESFASNRLGAPNCKAVLHGPFNPYELKCHSLTRISKFRCVWIEKESINSVVISDSPADLHQRMLVAASLSVNETGSTMLLRETSLMPHIPGLPALLSMLFAPVMELRVDREGKCYTGVLCGLGWNSATEAPILPEHDIELAFDVRLNVEDIVEINILRAAINKLVCDGPNGSKYLGPERIAQLQENARQKLLGLFCRLKPREKITPQWHEKPYEWNQVDPRLIMEQAEPEGSPGKSTSLYQLHTPVVLSP
B5: TRIM36 (protein, UniProt Q80WG7 1-729)
chain: MSESEEISEFGYIMELLAKGKVTIKNIEKELICPACKELFTHPLILPCQHSVCHKCVKELLLSLDDSFNDVASDSSNQSSPRLRLTSPSMDKIDKINRPGWKRNSLTPRPTTFPCPGCEHDVDLGERGVSGLFRNFTLETIVERYRQAARAATAIMCDLCKPPPQESTKSCMDCSASYCNECFKIYHPWGTVKAQHEYVGPTTNFRPKVLMCPEHETERINMYCELCRRPVCHLCKLGGNHSNHRVTTMSSAYKTLKEKLSKDIDFLIGKESQVKSQISELNLLMKETECNGERAKEEALAHFEKLFEILEDRKSSVLKAIDASKKLRLDKFHTQMEEYQGLLENNGLVGYAQEVLKETDQSCFVQTAKQLHLRIQKATESLKSFRPAAQASFEDYVVNISKQTEVLGELSFFSSGIDIPEINEEQSKVYNNALIDWHHPEKDKADSYVLEYRKINRDEEMISWNEIEVHGTSKVVSNLESNSPYAFRVRAYRGSICSPCSRELILHTPPAPVFSFLFDEKCGYNTEHLLLNLKRDRVESRAGFNVLLAAERIQVGHYTSLDYIIGDVGVTKGKHFWACRVEPYSYLVKVGVASSDKLQEWLRSPRDAASPRYEQDSGHDSGSEDACFDSSQPFTLVTIGMKKFFIPKSPTSSNEPENRVLPMPTSIGIFLDCDKGKVSFYDMDHMKCLYERQVDCSHTMYPAFALMGSGGIQLEEAITAKYLEYEEDV
B6: MAEL (repressor of transposable elements) (protein, UniProt Q8BVN9 1-434)
chain: MPNRRASRNAYYFFVQEKIPELRRRGLPVARVADAIPYCSADWALLREDEKEKYSEMAREWRAAQGKDSGPSEKQKLVSTPLRRPGMLVPKPSISPPDMSNLSIKSDQALLGGIFYFLNIFSHGELPPHCEQRFLPCEIGCVKYSLQEGIMADFHSFIHPGEIPRGFRFHCQAASDSSHKIPISNFEFGHDQATVLQNLYKFIHPNPGNWPPIYCKSDDRARVNWCLKRMERASEIRQDLELLTVEDLVVGIYQQKFLKEPSKTWVRSLLDVAMWDYSSNTRCKWHEENDILFCALAVCKKIAYCISNSLATLFGIQLTGAHVPLQDYEASNSVTPKMVVLDAGRYQKLRVESPGFCHFNSYNQEQRSNTSTGYYPSGVKISGPHSSVRGRGITRLLESISNSSNNIHRFSSCETSLSPYTPQKDGYKPFSSFS

Sequences of proteins named here, by UniProt entry; tags and fusion partners are left off.
UniProt Q9CWH6: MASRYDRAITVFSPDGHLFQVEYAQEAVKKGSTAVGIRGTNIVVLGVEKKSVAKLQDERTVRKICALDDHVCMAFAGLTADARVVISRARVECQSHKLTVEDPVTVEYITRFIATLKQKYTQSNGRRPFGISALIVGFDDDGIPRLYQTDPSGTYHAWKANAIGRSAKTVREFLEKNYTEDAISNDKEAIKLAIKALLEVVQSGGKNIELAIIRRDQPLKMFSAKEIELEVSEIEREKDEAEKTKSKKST

The binders below were run against PSMA8 (testis-specific proteasomal subunit α4s), endogenous (mouse (endogenous in testis)) (UniProt Q9CWH6) (assay: affinity purification with mass spectrometry; anti-PSMA8 antibodies R1 and R2 (detect PSMA7/8) bound to sepharose beads; 20 mg wild-type mouse testis extract in 50mM Tris HCl (pH8), 500mM NaCl, 1mM EDTA, 1% tritonX-100, o/n; buffer lacking ATP and glycerol; eluted in 100 mM glycine pH3).

binding, binds:
B1, B2, B3, B4, B5, B6
